Data on one substance can be found in PMC5762833.

Chains of the proteins cited; added tags and fusions are not shown. Lines headed by an entry give the natural chain unless they say otherwise; changes in a name come on top.
UniProt P24557: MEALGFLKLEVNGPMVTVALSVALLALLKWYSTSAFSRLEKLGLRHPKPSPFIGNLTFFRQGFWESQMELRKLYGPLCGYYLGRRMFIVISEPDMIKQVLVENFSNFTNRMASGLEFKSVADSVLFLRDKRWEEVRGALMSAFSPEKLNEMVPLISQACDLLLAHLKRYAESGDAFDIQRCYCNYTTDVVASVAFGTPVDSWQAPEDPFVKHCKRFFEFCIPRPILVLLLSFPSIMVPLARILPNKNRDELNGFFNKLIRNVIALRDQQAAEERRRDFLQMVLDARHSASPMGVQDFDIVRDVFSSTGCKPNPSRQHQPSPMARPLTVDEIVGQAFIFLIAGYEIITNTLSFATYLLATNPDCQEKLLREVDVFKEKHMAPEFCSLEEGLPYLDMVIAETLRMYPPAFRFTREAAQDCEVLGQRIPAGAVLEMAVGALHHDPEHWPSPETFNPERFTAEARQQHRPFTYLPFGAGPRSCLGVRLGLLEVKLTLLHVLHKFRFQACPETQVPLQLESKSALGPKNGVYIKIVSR
UniProt P05181: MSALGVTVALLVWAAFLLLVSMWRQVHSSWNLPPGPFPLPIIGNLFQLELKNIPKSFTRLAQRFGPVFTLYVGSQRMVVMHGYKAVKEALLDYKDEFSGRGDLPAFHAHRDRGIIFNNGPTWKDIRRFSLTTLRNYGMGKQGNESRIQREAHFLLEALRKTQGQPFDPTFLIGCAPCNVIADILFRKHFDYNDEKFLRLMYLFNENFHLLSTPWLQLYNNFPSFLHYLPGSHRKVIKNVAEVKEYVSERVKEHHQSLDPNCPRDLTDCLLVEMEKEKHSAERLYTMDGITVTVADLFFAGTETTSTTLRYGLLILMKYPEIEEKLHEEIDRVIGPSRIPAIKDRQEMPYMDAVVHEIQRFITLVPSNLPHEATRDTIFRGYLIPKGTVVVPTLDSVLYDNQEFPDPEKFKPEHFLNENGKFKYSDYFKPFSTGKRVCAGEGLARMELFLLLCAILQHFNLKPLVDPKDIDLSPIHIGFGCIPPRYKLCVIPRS

Results are given in words; binding and its absence hold for the method and conditions named. Binding seen in cells or lysates may run through a third protein. These calls come from enrichment with a bait or labelling near it, and not all partners need be listed.

The test addresses Human thromboxane synthase (TBXAS1) (human) (UniProt P24557). Description: affinity purification with mass spectrometry; direct molecular fishing: TBXAS1 covalently immobilised on CNBr-Sepharose 4B in a 200 µL microcolumn; human liver tissue lysate passed in HBS-EP+ (10 mM HEPES pH 7.4, 150 mM NaCl, 3 mM EDTA, 0.05% Tween 20) at 15°C; elution with 4% HCOOH (pH 2.5); LC-MS/MS; control column of empty inactivated sorbent; only the target purified.

“Cytochrome P450 2E1 (CYP2E1), from human liver tissue lysate (from UniProt P05181 1-493) (enzyme)”: the binding result was “binds”.
